# Library compounds against nucleic acid targets

Targets (5′ to 3′):
SAM-II: SAM-II riboswitch RNA pseudoknot, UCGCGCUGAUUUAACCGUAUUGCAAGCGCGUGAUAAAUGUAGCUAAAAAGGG. About 200 hits among about 21,000 compounds.
TPP: TPP riboswitch RNA three-way junction, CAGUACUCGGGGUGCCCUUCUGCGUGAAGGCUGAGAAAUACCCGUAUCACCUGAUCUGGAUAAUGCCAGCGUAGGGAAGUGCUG. About 160 hits among about 24,000 compounds.
PreQ1: PreQ1 riboswitch RNA pseudoknot, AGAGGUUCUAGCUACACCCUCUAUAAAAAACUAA. From B. subtilis. About 170 hits among about 24,000 compounds.

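Each compound is printed as two spots on a slide made to bind it covalently, so it has no test concentration; the read-out is fluorescence of the bound, labelled oligonucleotide. The data file lists only calls. An earlier report of the laboratory on the PreQ1, TPP and SAM-II riboswitches (doi:10.1038/s41467-019-09493-3) used 1 µM RNA for 2 h and required a mean Z-score above 3 (spot signal-to-noise against the whole library), a score well above that on a control array, and duplicate spots agreeing (coefficient of variation under 100); it then also set aside compounds that hit other targets, which this list keeps. The cut-offs behind this list may differ. The calls come from the array alone, and fixing a compound to the slide can hide its binding.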 A compound is marked active if it was called a hit and inactive if it was screened but was not. Compounds were drawn at random from those tested, without regard to their results. A dash means that no call is listed here.

Compound	SAM-II	TPP	PreQ1
COc1ccc(F)c(-c2ccc(CNC3CC3)cc2)c1	inactive	inactive	inactive
Cc1cccc(-c2noc(-c3cccnc3NCc3ccccn3)n2)c1	-	inactive	inactive
O=C(c1cccc2c1OCC2)N1CCC2(CCCNC2)C1 (centres unmarked)	inactive	inactive	inactive
COc1ccc(CNC(=O)c2nnn(Cc3ccc(Br)cc3)c2N)cc1	inactive	inactive	inactive
COc1ccccc1-c1c(C)nn2c(N)c(-c3ccc(Cl)cc3)cnc12	inactive	inactive	inactive
C=CCSc1nnc(-c2cccs2)[nH]1	inactive	inactive	inactive
O=C(NCCO)NC1CCS(=O)(=O)C1 (centres unmarked)	inactive	inactive	inactive
Cc1cccc(-c2nc3c4ccccc4nc(NCc4cccnc4)n3n2)c1	-	inactive	inactive
N#Cc1cnn2c(NC3CCCCCCC3)c(-c3cccs3)[nH]c12	-	inactive	inactive
COCc1cc([C@H]2N[C@](CO)(c3ccccc3)[C@H]3CN(C)C[C@@H]23)ccc1OC	inactive	inactive	inactive
COc1ccc(C(=O)c2c(N)c(C(=O)Nc3cccc(OC)c3)c3ccccn23)cc1	-	inactive	inactive
Cc1nc2c(C(=O)N3CCCC4(CCNC4)C3)cccc2[nH]1 (centres unmarked)	inactive	inactive	inactive
Nc1nc2n(n1)[C@@H](c1ccccc1)C[C@@H](c1ccc(Cl)cc1)N2	inactive	inactive	inactive
O=C1CC[C@@]2(O)[C@H]3Cc4ccc(O)c5c4[C@@]2(CCN3CC2CC2)[C@H]1O5	inactive	inactive	inactive
CC1(C)CNCCN1Cc1ccc(C(=O)Nc2c(F)cccc2F)cc1	inactive	inactive	inactive
CC(C)N[C@@H]1CC[C@@H]1NC(=O)c1cccc(-c2ccccc2)c1	inactive	inactive	inactive
COc1cccc(CNCCO)c1OCc1ccc(Cl)cc1	inactive	inactive	inactive
c1ccc2c(c1)-c1cccc3cncc-2c13	inactive	inactive	inactive
CN1C2CCC1CC(NCCc1ccccc1)C2 (centres unmarked)	inactive	inactive	inactive
COC(=O)C1=C(C)OC(N)=C(C#N)C12C(=O)Nc1ccc(Cl)cc12 (centres unmarked)	inactive	inactive	inactive
CCC(O)CNC(=O)c1ccc(S(=O)(=O)N(C)Cc2ccon2)cc1 (centres unmarked)	inactive	inactive	inactive
CC(C)(O)C#Cc1cccc(C(=O)NCc2csc(N)n2)c1	inactive	inactive	inactive
Cc1ccc2nc(C(=O)O)cc(Nc3ccc(F)cc3)c2c1	inactive	inactive	inactive
COC(CN1CCN(C(=O)[C@H](N)c2ccccc2)CC1)OC	inactive	inactive	inactive
Cc1ccc(NCC(=O)c2ccc([N+](=O)[O-])cc2)cc1	inactive	inactive	inactive
Cc1cc(O)c2c(C)ccc(C)c2n1	inactive	inactive	inactive
Cc1ccc(Nc2nnc(-c3ccc4c(c3)OCO4)o2)c(C)c1	inactive	inactive	inactive
NC(=O)c1ccc2nc(-c3ccc(Oc4ccc(Cl)cc4)cc3)[nH]c2c1	inactive	inactive	inactive
CCn1cnc2cc(NCc3cccc(OC)c3OC)ccc21	inactive	inactive	inactive
C=C(C)CN1C(=O)C(C)S/C1=N/N=C1/SCC(=O)N1C (centres unmarked)	inactive	inactive	inactive
COCCOC(=O)C1=C(C)OC(N)=C(C(=O)OC)C12C(=O)N(C)c1ccccc12 (centres unmarked)	inactive	inactive	inactive
Nc1nonc1C(=O)NCCNCc1cccc(OCc2ccccc2Cl)c1	inactive	inactive	inactive
CC(O)c1cccc(NC(=O)c2cnn3c2N[C@@H](c2ccccc2)C[C@H]3C(F)(F)F)c1 (some centres unmarked)	inactive	inactive	inactive
c1ccc(COc2cccc(CNCc3cccnc3)c2)cc1	inactive	inactive	inactive
Nc1cnc(-c2cccc(C(=O)N3CCCCC3)c2)cn1	inactive	inactive	inactive
OCC1(CCc2ccccc2)CCCN(c2ncnc3[nH]cnc23)C1 (centres unmarked)	inactive	inactive	inactive
Cc1cc2c(N3CCC4(CCCN(CCO)C4=O)C3)ncnc2s1 (centres unmarked)	inactive	inactive	inactive
CC(=O)N1CCN(C(=O)c2ccc(C)c(O)c2)CC(O)C1 (centres unmarked)	inactive	inactive	inactive
Cc1nc2c(N3CCN(Cc4ccoc4)C(CCO)C3)ncnc2o1 (centres unmarked)	inactive	inactive	inactive
CC(=O)c1ccc(OCC(O)CN2CC(C)OC(C)C2)cc1 (centres unmarked)	inactive	inactive	inactive
Cc1ccc(S(=O)(=O)N2CC=C(N)N2)cc1	inactive	inactive	inactive
OCc1ccc(-c2nccn2Cc2ccncn2)o1	inactive	inactive	inactive
COc1ccc(NC(=O)c2sc3nc4c(cc3c2N)CCCC4)cc1	inactive	inactive	inactive
COc1ccc(-c2nc3ncccn3c2NCCc2ccccc2)cc1	inactive	inactive	inactive
O=C1c2cccc3cccc(c23)C(=O)N1CC1CCN(CC(O)COc2ccccc2F)CC1 (centres unmarked)	inactive	inactive	inactive
CCc1nccn1CCC(=O)N1CCC(C(O)Cc2ccccc2)CC1 (centres unmarked)	inactive	inactive	inactive
CCOC(=O)C1(CC)CC(C)(c2csc(Nc3ccc(C)cc3)n2)OC1=O (centres unmarked)	inactive	inactive	inactive
CN(C)CC[C@H](c1ccc(Cl)cc1)c1ccccn1	inactive	inactive	inactive
Cn1c(=O)n(C)c2cc(C(O)COc3ccc(CNCc4cccs4)cc3)ccc21 (centres unmarked)	-	inactive	inactive
CC(C)c1cnn2c(NCc3ccccc3)cc(N[C@@H](CO)[C@H](O)CO)nc12	inactive	inactive	inactive
Nc1nonc1C(=O)NCCNCc1c(OCc2ccccc2Cl)ccc2ccccc12	inactive	inactive	inactive
COc1ccc(S(=O)(=O)N2CCN(c3cc(C)nc(NC4CCCCC4)n3)CC2)cc1C	-	inactive	inactive
O=C(CCNc1ccc(-c2ccccc2)cc1)c1ccc(Br)cc1	inactive	inactive	inactive
O=C(c1cnn[nH]1)N1CCC2(CC1)[C@H](O)C[C@@H]2OCCO	inactive	inactive	inactive
C=CCOc1cccc(CN(C)c2nc(CCN)nc3ccccc23)c1	active	inactive	inactive
Cc1cccc(N2CCC(NC(=O)c3cn(CCN)nn3)CC2)c1	inactive	inactive	inactive
Cn1c(=O)n(C)c2cc(CNCCc3ccccc3)ccc21	-	inactive	inactive

Source: the ROBIN nucleic acid binder screens (doi:10.1002/anie.202211358).